Experimental findings from paper PMC3726584 are described below.

The chains behind the UniProt entries cited, without tags or fusion partners.
UniProt P05556: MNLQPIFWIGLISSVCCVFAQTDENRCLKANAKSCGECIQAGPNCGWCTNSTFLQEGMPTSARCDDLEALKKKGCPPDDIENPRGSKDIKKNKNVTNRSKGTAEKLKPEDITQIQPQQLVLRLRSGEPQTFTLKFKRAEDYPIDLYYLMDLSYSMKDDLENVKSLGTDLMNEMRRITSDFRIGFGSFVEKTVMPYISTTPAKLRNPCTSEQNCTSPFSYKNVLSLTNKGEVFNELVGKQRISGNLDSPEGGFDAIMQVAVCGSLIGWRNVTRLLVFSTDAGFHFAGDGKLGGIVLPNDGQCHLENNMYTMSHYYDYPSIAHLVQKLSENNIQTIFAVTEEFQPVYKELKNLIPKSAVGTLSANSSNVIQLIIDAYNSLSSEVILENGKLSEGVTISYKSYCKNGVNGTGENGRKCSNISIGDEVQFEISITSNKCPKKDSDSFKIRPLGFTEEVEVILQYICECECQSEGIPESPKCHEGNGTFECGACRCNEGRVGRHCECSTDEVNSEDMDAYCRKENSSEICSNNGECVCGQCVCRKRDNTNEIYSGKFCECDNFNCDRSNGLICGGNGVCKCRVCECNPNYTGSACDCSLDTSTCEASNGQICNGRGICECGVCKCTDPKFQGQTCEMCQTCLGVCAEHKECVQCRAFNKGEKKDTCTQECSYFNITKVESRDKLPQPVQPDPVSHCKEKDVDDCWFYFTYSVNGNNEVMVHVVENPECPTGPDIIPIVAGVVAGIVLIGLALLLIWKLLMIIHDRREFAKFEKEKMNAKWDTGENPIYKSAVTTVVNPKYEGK

In experiment [1] the target is Integrin beta-1 (human (endogenous in primary RPE cells)) (UniProt P05556). The experiment in a line: flow cytometry on cells; biotinylated Gal-3 (50 µg/mL in the methods, 40 ug/mL in the legend) on RPE cells, 1 h at 4°C, avidin-FITC; cells first incubated with anti-CD147, anti-integrin-β1 or anti-integrin-α3 antibody to block these sites; cell surface binding inhibited by 100 mM β-lactose, not by sucrose; only the binder purified. Background: A flow cytometer gives signals particle by particle.

The target is the same in experiment [2]. The experiment in a line: co-IP; 375 µg RPE cell lysate (1% Triton X-100), no cross-linking; 2 µg monoclonal anti-CD147, anti-integrin-α3 or anti-integrin-β1 on ProteinG Sepharose, 2 h in the cold; eluates immunoblotted with anti-Gal-3. (In general: A western blot detects proteins with antibodies after separation by electrophoresis.)

These are yes or no findings as the source states them, for the method shown. For some assays here: Binding seen in cells or lysates may run through a third protein. Some binding calls cover weakened binding; strength is not graded here.

“Recombinant human galectin-3, biotinylated (from UniProt P17931 1-250)”: the binding entry in experiment [1] is recorded as “binds”.

“Galectin-3 (endogenous) (from UniProt P17931 1-250)”: the binding result in experiment [2] is “binds”.
